Measurements from paper PMC4317163.
These are yes or no findings as the source states them, for the method shown. In cells and extracts the contact can be indirect. Here binding means that the protein was enriched with, or labelled near, the bait; the list need not be complete. Where a sequence is shown, tags or fusion partners need not be part of it. Values belong to the molecule of their own block, whether it stands above or below them.

Amino acid sequences for entries named in this document (tags omitted). A change or cut given only in a name is not applied to a line headed by its entry.
UniProt Q9VHG6: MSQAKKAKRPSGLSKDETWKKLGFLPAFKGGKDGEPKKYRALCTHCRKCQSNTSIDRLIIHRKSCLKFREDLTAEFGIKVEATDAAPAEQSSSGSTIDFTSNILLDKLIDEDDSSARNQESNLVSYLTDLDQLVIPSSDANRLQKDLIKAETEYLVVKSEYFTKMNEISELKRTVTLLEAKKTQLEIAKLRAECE

Target: T1, FLAG-CP190 (Drosophila) (UniProt Q24478)
T1 sequence: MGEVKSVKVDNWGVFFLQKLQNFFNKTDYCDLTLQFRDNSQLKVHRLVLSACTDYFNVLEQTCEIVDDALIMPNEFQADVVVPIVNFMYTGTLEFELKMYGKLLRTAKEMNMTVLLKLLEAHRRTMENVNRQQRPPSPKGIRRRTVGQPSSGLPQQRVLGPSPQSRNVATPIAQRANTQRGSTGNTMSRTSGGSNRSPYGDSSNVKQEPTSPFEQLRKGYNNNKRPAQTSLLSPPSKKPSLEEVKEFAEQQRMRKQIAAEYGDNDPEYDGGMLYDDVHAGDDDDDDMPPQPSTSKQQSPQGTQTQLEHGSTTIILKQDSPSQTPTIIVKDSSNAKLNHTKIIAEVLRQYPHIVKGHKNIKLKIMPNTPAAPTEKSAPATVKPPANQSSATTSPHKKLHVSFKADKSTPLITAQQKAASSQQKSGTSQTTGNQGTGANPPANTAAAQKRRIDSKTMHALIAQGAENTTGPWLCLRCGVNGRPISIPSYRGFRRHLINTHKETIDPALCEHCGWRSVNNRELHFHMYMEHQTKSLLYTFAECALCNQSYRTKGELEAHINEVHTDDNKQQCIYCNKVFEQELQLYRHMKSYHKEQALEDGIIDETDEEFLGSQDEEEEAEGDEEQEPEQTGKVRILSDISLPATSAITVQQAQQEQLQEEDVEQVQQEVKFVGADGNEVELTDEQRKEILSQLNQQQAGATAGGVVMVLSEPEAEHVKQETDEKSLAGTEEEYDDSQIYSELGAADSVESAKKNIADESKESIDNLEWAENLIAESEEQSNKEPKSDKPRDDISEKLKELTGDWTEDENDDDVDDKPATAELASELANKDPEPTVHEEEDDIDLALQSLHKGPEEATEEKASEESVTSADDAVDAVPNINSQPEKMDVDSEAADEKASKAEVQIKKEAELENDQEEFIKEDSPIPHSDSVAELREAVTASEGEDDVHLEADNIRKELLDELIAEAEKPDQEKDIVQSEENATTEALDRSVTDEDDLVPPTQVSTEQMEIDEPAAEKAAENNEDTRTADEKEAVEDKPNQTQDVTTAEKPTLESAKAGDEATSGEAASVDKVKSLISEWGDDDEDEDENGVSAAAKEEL
Test: affinity purification with mass spectrometry; FLAG-CP190 purified from extract of stably transfected S2 cells with or without CuSO4 induction; proteins enriched more than threefold in the induced sample counted as interacting

- binding: binds
Molecule: Chromator (Drosophila (endogenous in S2 cells))

- binding: binds
Molecule: Ibf2 (from UniProt Q9VHG6)

- binding: binds
Molecule: Map60 (CP60) (Drosophila (endogenous in S2 cells))

- binding: binds
Molecule: Ibf1 (Drosophila (endogenous in S2 cells))

- binding: binds
B1: Su(Hw) (protein, UniProt P08970 1-941)
chain: MSASKEGKEKKGKLLGVENISPPKDKRPATRMKLLNDVGAGEDSEASTTTTTSRTPSNKQEKRGSVAGSRIKILNEEILGTPKTEKRGATKSTAPAASTVKILNEKKTPSATVTAVETTKIKTSPSKRKKMEHYVLQAVKSENTKADTTVTVVTEEDDTIDFILADDEEVVPGRIENNNGQEIVVTEDDEDLGEDGDEDGEDSSGKGNSSQTKIKEIVEHVCGKCYKTFRRVQSLKKHLEFCRYDSGYHLRKADMLKNLEKIEKDAVVMEKKDICFCCSESYDTFHLGHINCPDCPKSFKTQTSYERHIFITHSEFSDFPCSICNANLRSEALLALHEEQHKSRGKPYACKICGKDFTRSYHLKRHQKYSSCSSNETDTMSCKVCDRVFYRLDNLRSHLKQHLGTQVVKKPEYMCHTCKNCFYSLSTLNIHIRTHTGEKPFDCDLCDKKFSALVALKKHRRYHTGEKPYSCTVCNQAFAVKEVLNRHMKRHTGERPHKCDECGKSFIQATQLRTHSKTHIRPFPCEQCDEKFKTEKQLERHVKTHSRTKRPVFSCAECKRNFRTPALLKEHMDEGKHSPKQQRSSMRSAVKIMERTDCAICDKNFDSSDTLRRHIRTVHECDPDDIFGVEPHPSKRAKKDIESEEVVPVALNTSAGSLISSQTDGNGVVVREFLVDEGDGAAQTITLENETYTILPLDGAIEGEQLTDEAGVKPEAKKEEAQVSPVVKKEQRKSLAASLAAAIADNLEESCSEDDFSGEILTEEDIKLKENVGKLIDMLVDPPILKKYGWPNAPEETVLCKVIENCGHDLTKGGENYAELDYGSRMREYCKLLFTVVIHNDSIKSLLNNFPIDDVIEYVLGDEDQDEGGLDKDNESHSGDEEAVSVTGETKTNEIREKPEKKEVSAKSEKKEIVGKAVDKDNSEEVVRENKKKPVGEQEKA

- binding: binds
B2: CTCF (endogenous, S2 cells) (protein, UniProt Q9VS55 1-818)
chain: MPRRTKKDEDPEDLQTFLNNFHKEIEGNSDEKVVNTILEAISAEAIDLDENGAEAGGSKPMEEAEADLDHAEEAEEEEEDDEDKYFIDDEGNCYIKTTPKKQKELQKKLKQAAAKPGKATRSVVSTATNKSINLRPAKSTPKATTSKPPPEPKAISVRPARAAAAKAKQSAMPPPPALVVKVPAPRGRPRKNPVIPKPEPMDLERELEELVDEPDISSMVTELSDYTVDEAAVEAATATLTPNEAEVYEFEDNATTEDENADKKDVDFVLSNKEVKLKTASSTSQNSNASGHKYSCPHCPYTASKKFLITRHSRSHDVEPSFKCSICERSFRSNVGLQNHINTHMGNKPHKCKLCESAFTTSGELVRHTRYKHTKEKPHKCTECTYASVELTKLRRHMTCHTGERPYQCPHCTYASQDMFKLKRHMVIHTGEKKYQCDICKSRFTQSNSLKAHKLIHSVVDKPVFQCNYCPTTCGRKADLRVHIKHMHTSDVPMTCRRCGQQLPDRYQYKLHVKSHEGEKCYSCKLCSYASVTQRHLASHMLIHLDEKPFHCDQCPQAFRQRQLLRRHMNLVHNEEYQPPEPREKLHKCPSCPREFTHKGNLMRHMETHDDSANAREKRRRLKLGRNVRLQKDGTVITLIKDQYVDMDRDQEENEEDDNPESYDLAEIEPENSEAEDADDDVETIVSDPIRQRIKPAPIIINKQARLAASEKQPMIINQRLRSQRGTKTFHIKEEPDNSDFTVEWQGDDGEVMVVELVNGDEEVLVKHEPSANSKISAKNCFGFEDDDDYEEYGDGENEVDGASQEFLQLMDMIEQDS

- binding: binds
B3: Pita (endogenous, S2 cells) (protein, UniProt Q95RQ8 1-683)
chain: MAAKLEVREAMLTEKRVCRFCLTEQKLASIFEENPRVKTTANLPLQIMAITAIEVYAGDGMPGHICLECRLLFEHCYRFKQMCKRAETLLRQYPLTGNWPSPLEKPRAPMTMVASKKLLVVPAKTAEPSETPKKLLNTMAKSSSQVIIEDVQVLESAMVTPRTVAGSSPVPRRSHAYELKVDNNQELSMDDVQSMLEDMASELEKEFPDIPQKASPVKPKVLNKSSIRILNKGPAAPVEPRLATPKVKRDDSGNVAIVTEVLDSDLPLDDQDDPTKNAEKVATDVFPCPDCERSFPLQQLLEIHRLNHTRSRSFQCLLCEKSFFSKYDLAKHNFVHTGERPFKCAICSKAFTRKALLHRHERTHTDVPKFICVYCEKPFLSRQEMEKHAERHQKKRPFQCGVCTKSFAFKQGLERHETVHSTNLPFPCQHCERSFSTASKLARHLVAHAGKRAYPCKYCHKSYMLSHHLSRHLRTHTQTSDASFVCSECKVSYSNYNDLLDHALIHATASLKCPMCRKQIEDIDSVESHMDQHKQSERHACEFCDHIFLTQKCLQRHIEDDHVVEMEPYQNEFEDDGEGEGGVDEKEEHLDDFEDMDNVKQEEFVTEYLEDDALYEDHLDDSDESFTPPPPKQRKTNPPKDAQQSVRQTRSRDAQRITQKTGKNEGKPHHKLERNLKNRRSAK

- binding: binds
B4: ZIPIC (endogenous, S2 cells) (protein, UniProt Q9VAB8 1-457)
chain: MNCCICQFSVRVPKDIHTDTVGHPPVLISELVLQCTRGTNYVLTEESSTICKKCCEKLARYHKSIQIARKLRGEILELIHSPYMSKDHKQTSYKEDDLDRETTISKFDGNIEEAQQQDEEEQELESVGTTVTLVGPAGIVEEVAEEEHTFIIKQSEEEDEFHSVDLELDIDNEIIINEEEAHEVEEVAHEIEEVAHEIEEEDLLPHDKQEAQEEDFFKEDTMSDFDEHLDGAIEYIISDGEDQEQDNESSGEYTVNIQCPSCPEKFSSRRAYNVHTKREHFPGYVCDQCGKTLQSYSGFIGHLQNHEPVKQFACPVCPERFSRKFRLKHHMAWHSGETPYQCDVCSKRFVHKVALYKHKMIHDSETKRLECQVCGFKTRTKAHLERHMRSHTGDKPFACPVCNKRFSQMYNMKAHLREHESPGTNRHRRFHCSKCTHTFINEQNYDAHVQRDDCTPV
